Source: patent US6132697A (G. D. Searle & Co., priority 1997, dated 2000)

Experiment: general procedure: solution-phase peptide synthesis; isobutyl chloroformate/N-methylmorpholine; DCC/N-hydroxysuccinimide; thiocarbony
Settings: for conjugation yield: conjugation step

Row | Substance | conjugation yield | step yield (late stage modification step) | step yield (coupling step)
1 | ABAS-L-Asp-L-Lys p-amino-Phe(α-S-THP-mercaptoacetyl)-Gly-dmen Thiourea | 10% yield | – | –
2 | ABAS-L-Asp-L-Lys(ε-AAA(N-α-S-THP-mercaptoacetyl)-Glu(γ- t-Bu)-dmen) | 46% yield | – | –
3 | ABAS-L-Asp-L-Lys(ε-AAA(α-S-THP-mercaptoacetyl)-Glu(γ-t- Bu)-dmen) | – | 91% | –
4 | ABAS-L-Asp-β-Ala-ε-L-Lys(α-S-THP-mercaptoacetyl)-Glu-dme [ABAS-L-Asp-β-Ala-ε-L-Lys(α-S-THP-mercaptoacetyl)-Glu-dme] | – | 86% yield | 17% yield
5 | Asp-L-Lys(ε-γ-L-Glu(N-α-S-THP-mercaptoacetyl)-Gly-dmen) | – | 34% | –
6 | N-Boc-L-Asp(β-OtBu)-L-Lys(ε-γ-L-Glu(N-α-S-THP-mercaptoacetyl)-Gly-dmen)-OtBu | – | – | 88%
